Results deposited as PubChem BioAssay AID1259326 (Drosophila RNAi Screening Center, 2017).
This is one part, drawn at random, of 573 deposited reagents. Of all reagents, 39 (6.8%) were called active. 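All actives have raised ATP, meaning more surviving cells; in these data active calls sit at averaged z-scores near 1.5 or above.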 Raw values are not corrected between plates. A number with no mark means an inactive call. The record does not give: the amount of reagent.

- Purpose: 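Knock-downs that shift cellular ATP after a high zinc chloride dose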
- Cell system: Drosophila S2R+ cells
- Reagent: long dsRNA against Drosophila genes
- Duration: about 5 days (4 days of RNAi, then 1 day of zinc)
- Treatment: zinc chloride added to 15 mM final for one day
- Detection: 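Luminescent ATP signal marks surviving cells, read after RNAi for 4 days then 15 mM zinc chloride for 1 day; z-scores are replicate means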
- Reading the numbers: averaged z-score: higher = more ATP than other wells, i.e. more surviving cells, after zinc; ATP luminescence: higher = more ATP, i.e. more surviving cells
- Rule for the call: 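Active if the averaged z-score exceeds 1.5 or falls under -1.5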

no.	gene	amplicon	averaged z-score	ATP luminescence, replicate 1	ATP luminescence, replicate 2
1	Nipsnap	DRSC20169	0.202	91523	93427
2	Nipsnap	DRSC41231	0.198	78571	82174
3	Pgk	DRSC26595	-0.6	87920	63016
4	Pgk	DRSC34586	0.19	75896	75553
5	Pgk	DRSC34587	-0.131	80370	77645
6	cher	DRSC27625	-0.0232	91420	83870
7	cher	DRSC40768	1.97 (active)	1.26e5	1.07e5
8	cher	DRSC41209	-0.132	71419	79000
9	Mtpbeta	DRSC04663	-0.766	82602	88383
10	Mtpbeta	DRSC41251	-0.149	60760	80750
11	Mtpbeta	DRSC41252	0.282	73613	77304
12	PolrMT	DRSC00660	-0.11	91598	76119
13	PolrMT	DRSC37478	0.0163	88949	56499
14	PolrMT	DRSC41189	-0.4	66960	67827
15	Mhc	DRSC25959	-0.306	83066	73169
16	Mhc	DRSC34448	-0.32	75518	66823
17	Mhc	DRSC34449	0.984	91677	95005
18	Rpt6	DRSC20571	-0.205	92260	73717
19	Rpt6	DRSC27933	-0.259	76559	70733
20	Rpt6	DRSC32526	-0.384	62381	68332
21	Atg2	DRSC08273	-0.0648	79704	69361
22	Atg2	DRSC40921	0.0773	71882	94233
23	Atg2	DRSC41152	0.16	72054	83437
24	alc	DRSC23316	0.0647	80784	81916
25	alc	DRSC33285	0.498	73856	84609
26	alc	DRSC33286	0.028	82722	79275
27	pk	DRSC24979	-0.823	74901	67372
28	pk	DRSC34929	-0.296	67914	80304
29	pk	DRSC34930	-0.533	61660	68693
30	Pdk1	DRSC27069	-0.117	91951	79383
31	Pdk1	DRSC30825	0.0423	89515	67132
32	Pdk1	DRSC30826	-0.169	66737	74764
33	mTor	DRSC02811	-0.606	77971	78482
34	mTor	DRSC30664	-0.087	72791	68988
35	mTor	DRSC40810	-0.457	86102	39872
36	Parp1	DRSC07725	-0.204	87611	79755
37	Parp1	DRSC07778	-0.582	86342	42696
38	Parp1	DRSC31321	0.101	75278	81497
39	Mtl	DRSC16751	-0.39	88280	71985
40	Mtl	DRSC36493	-0.191	75675	75090
41	Mtl	DRSC41229	-0.25	63067	81583

Looked up above.
Mtl [DRSC41229], ATP luminescence, replicate 2 → 81583
Entry for Parp1 [DRSC07778] in “ATP luminescence, replicate 1”: 86342
Pgk [DRSC34587], averaged z-score: -0.131
For “ATP luminescence, replicate 1”, cher [DRSC40768] shows 1.26e5 (active)
For “averaged z-score”, Mhc [DRSC25959] shows -0.306
For “ATP luminescence, replicate 1”, Nipsnap [DRSC41231] has 78571

The list goes on:
no.	gene	amplicon	averaged z-score	ATP luminescence, replicate 1	ATP luminescence, replicate 2
42	Nup154	DRSC26396	1.3	87200	1.17e5
43	Nup154	DRSC34700	2.35 (active)	1.12e5	1.26e5
44	Nup154	DRSC40143	-0.0479	81933	71213
45	Nek2	DRSC18124	-0.486	63479	63221
46	Nek2	DRSC26714	-0.0931	99637	71333
47	Nek2	DRSC37047	-0.139	80544	73083
48	Pfk	DRSC07506	-0.622	83580	68641
49	Pfk	DRSC27413	-0.393	82688	67256
50	Pfk	DRSC34584	-0.452	63359	70339
51	zip	DRSC22489	0.133	76975	76547
52	zip	DRSC28416	0.118	99157	73232
53	zip	DRSC40456	0	88074	68521
54	beta'COP	DRSC26650	2.6 (active)	1.38e5	1.23e5
55	beta'COP	DRSC30701	2.55 (active)	1.26e5	1.30e5
56	beta'COP	DRSC30702	2.48 (active)	1.44e5	99071
57	MYPT-75D	DRSC10743	-0.249	71059	1.02e5
58	MYPT-75D	DRSC41230	-0.228	66754	71179
59	Slh	DRSC00789	0.117	1.15e5	62433
60	Slh	DRSC33353	1.64 (active)	1.25e5	86729
61	Slh	DRSC33354	1.53 (active)	92981	1.14e5
62	IKKepsilon	DRSC03550	0.265	98231	82191
63	IKKepsilon	DRSC36795	-0.176	76680	75141
64	IKKepsilon	DRSC41226	0.0237	68555	78812
65	Atg1	DRSC09809	0.769	1.11e5	68520
66	Atg1	DRSC09810	0.444	82517	87560
67	Atg1	DRSC37017	-0.342	88289	73563
68	Rab14	DRSC03403	-0.41	88555	65811
69	Rab14	DRSC28941	-0.131	78160	72071
70	Rab14	DRSC41235	-0.0664	70150	78554
71	Sec23	DRSC12387	0.262	95601	84644
72	Sec23	DRSC31247	0.395	76496	86591
73	Sec23	DRSC31248	-0.503	74404	51995
74	ValRS	DRSC06864	0.753	1.18e5	82086
75	ValRS	DRSC33384	0.31	83734	82120
76	ValRS	DRSC41146	0.401	72483	87714
77	ValRS	DRSC41217	0.201	75090	86599
78	CG31855	DRSC02968	-0.199	98042	65914
79	CG31855	DRSC25858	-0.21	80613	71829
80	CG31855	DRSC41181	-0.0573	66720	76668
81	Pex23	DRSC10323	-0.398	60821	69070
82	Pex23	DRSC10645	-0.2	92603	72591
83	Pex23	DRSC28370	-0.00785	85656	60632
84	CG8475	DRSC03091	0.437	86736	94834
85	CG8475	DRSC41203	-0.16	65091	77988
86	Cln3	DRSC10520	-0.211	95074	64336
87	Cln3	DRSC27270	-0.0271	84215	75970
88	Cln3	DRSC41211	-0.157	66463	81899
